PubChem BioAssay AID1508597 | Cure First | 2020
Shown is an unselected part of the about 2,100 reagents, under one of the conditions tested. 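Calls flag viability under 80% in either arm, not effects specific to rucaparib; the reference for percent is not stated.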 Not stated in the record: the 100% reference.

- Purpose: 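Survival screen with siRNA in ovarian cancer cells derived from patients, with or without rucaparib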 (primary screen)
- System: human ovarian carcinoma lines grown from tumours: OCI-P5x (papillary serous) and OCI-C5x (clear cell)
- Knock-down reagent: siRNA pool against human genes, 1.25 pmol siRNA per well
- Time to read-out: 72 h or 96 h, depending on the cell culture
- Challenge: rucaparib 20 µM (about IC30) or vehicle, present until read-out
- Rucaparib or vehicle: Rucaparib
- Cell line: OCI-P5x (serous)
- Measured: 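ATP luminescence measured at 72 or 96 h according to the culture, then normalised and expressed as percent viability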
- Direction: viability, normalised: higher = more viable cells remaining
- Active means: 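a well counts as a hit if its normalised viability is under 80 percent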
- Meaning of the calls: active = viability under 80%; inactive = viability 80% or more

TTF1, technical replicate 1 showed viability, normalised (%) = 48.4; active.
With TTF1, technical replicate 2, the values are viability, normalised (%) = 53; active.
TTF1, technical replicate 3 gave viability, normalised (%) = 53.6; active.
With CLK1, technical replicate 1 the deposit lists viability, normalised (%) = 88.4; inactive.
CLK1, technical replicate 2 scored viability, normalised (%) = 87.4; inactive.
For CLK1, technical replicate 3, the values are viability, normalised (%) = 76.5; active.
MKNK2, technical replicate 1 scored viability, normalised (%) = 89.6; inactive.
With MKNK2, technical replicate 2, the values are viability, normalised (%) = 81.9; inactive.
With MKNK2, technical replicate 3, the entry reads viability, normalised (%) = 76.2; active.

Look-ups from the list:
MKNK2, technical replicate 1, viability, normalised (%) = 89.6
Under “viability, normalised (%)”, MKNK2, technical replicate 2 reads 81.9
MKNK2, technical replicate 3, viability, normalised (%) = 76.2

Next entries follow:
With VCAM1, technical replicate 1, the values are viability, normalised (%) = 53.8; active.
With VCAM1, technical replicate 2, the entry reads viability, normalised (%) = 83.7; inactive.
VCAM1, technical replicate 3 showed viability, normalised (%) = 73.3; active.
For ARID5B, technical replicate 1, the values are viability, normalised (%) = 51.1; active.
ARID5B, technical replicate 2 showed viability, normalised (%) = 54.9; active.
For ARID5B, technical replicate 3, the entry reads viability, normalised (%) = 56.6; active.
PHF13, technical replicate 1 scored viability, normalised (%) = 39.2; active.
PHF13, technical replicate 2 scored viability, normalised (%) = 40.6; active.
PHF13, technical replicate 3 scored viability, normalised (%) = 43.4; active.
DDX31, technical replicate 1 scored viability, normalised (%) = 61.2; active.
For DDX31, technical replicate 2 the deposit lists viability, normalised (%) = 62.9; active.
DDX31, technical replicate 3 scored viability, normalised (%) = 51.1; active.
